Assay results reported in US20140308201A1.
These are yes or no findings as the source states them, for the method shown. Some binding calls cover weakened binding; strength is not graded here.

Protein sequences, listed by entry. Tags and fused reporters are not part of them. Lines headed by an entry give the natural chain unless they say otherwise; changes in a name come on top.
UniProt P02745: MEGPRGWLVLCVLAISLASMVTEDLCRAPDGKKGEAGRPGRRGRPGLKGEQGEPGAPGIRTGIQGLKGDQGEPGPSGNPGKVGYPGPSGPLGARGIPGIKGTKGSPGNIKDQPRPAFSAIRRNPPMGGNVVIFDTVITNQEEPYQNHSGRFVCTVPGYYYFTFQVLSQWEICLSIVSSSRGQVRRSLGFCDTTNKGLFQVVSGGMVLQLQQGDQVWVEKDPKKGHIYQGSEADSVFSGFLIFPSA

Key:
complement factor Clq [1] = target: complement factor Clq (UniProt P02745); assay: ELISA, antibody coated in serial dilution, constant C1q, anti-C1q-HRP
complement factor Clq [2] = target: complement factor Clq (UniProt P02745); assay: ELISA: antibody coated on the plate in a dilution series (dose axis), constant C1q added, detected with anti-human C1q-HRP, OD 450 nm [B]

B1: mAb12433 (antibody, human IgG1, kappa, V domains shown)
VH: QVQLVQSGAEVKKPGESLKISCKGSGYSFTNYYIHWVRQMPGKGLEWMGAIYPDNSDTTYSPSFQGQVTISADKSISTAYLQWSSLKASDTAMYYCARGADIWGQGTLVTVSS
VL: DIQMTQSPSSLSASVGDRVTITCRASQDIDPYLSNWYQQKPGKAPKLLIYDASNLQSGVPSRFSGSGSGTDFTLTISSLQPEDFATYYCQQTTSHPYTFGQGTKVEIKR
Question: Which binding (complement factor Clq [1]) does the source give for B1 here?
Answer: binds

Question: What about the binding (complement factor Clq [2]) of the same binder?
Answer: binds
